Source: patent publication US20180369219A1, “USING DABIGATRAN TO TREAT PANCREATITIS” (Mayo Foundation for Medical Education and Research, priority 2017, published 2018)
For at least one compound, name, drawing or mass did not settle the structure.

Tested on: mutant trypsinogen mice
Experiment: Prevention of pancreatitis in mouse model expressing active trypsin (PACE-trypsinogen)
Format: in vivo
Conditions: for development of severe AP (pancreas edema, serum amylase): pretreated two hours prior to caerulein and seven hours after final caerulein injection, Dabigatran 200 mg/kg×2, Camostat 300 mg/kg×2, Ximelagatran 40 mg/kg×2
Procedure: The secretagogue overstimulation model of experimental pancreatitis with caerulein, is a commonly used AP model (Zhan et al., Gastrointestinal Liver Physiology, 311:G343-55 (2016)). This model was accomplished by repeated intraperitoneal (ip) injections of caerulein (100 μg/kg/hour) once per hour (Huang et al., Gastroenterology, 144:202-10 (2013)).
A PACE-activated trypsinogen model in which the original enteropeptidase cleavage site (DDDDK) was replaced by a PACE cleavage site (RTKR), using site-specific mutagenesis of the wild type rat trypsinogen cDNA, was produced (Ji et al., J. Biol. Chem., 284:17488-98 (2009)). PACE, paired basic amino acid cleaving enzyme (also called furin), is a mammalian propeptide-processing endoprotease that is present in the trans-Golgi network of virtually all cells. To target expression of PACE-trypsinogen specifically to pancreatic acinar cells, conditional LGL (loxP-GFP-stop-loxP)-PACE-trypsinogen transgenic mice were bred with full-length, acinar specific, elastase promoter-regulated Cre transgenic mice. In these mice, an active form of trypsin was expressed only in the pancreatic acinar cells (Gaiser et al., Gut, 60:1379-88 (2011)).
Camostat mesilate (Santa Cruz), Dabigatran etexilate mesylate (a prodrug for Dabigatran, TRC Canada), and Ximelagatran (a prodrug for Melagatran, Sigma-Aldrich) were dissolved in 10% β-Cyclodextrin (Sigma-Aldrich). […]
Pancreas edema, serum amylase, and histology were evaluated as described elsewhere (Gaiser et al., Gut, 60:1379-88 (2011); Huang et al., Gastroenterology, 144:202-10 (2013); and Daniluk et al., J. Clin. Invest., 122:1519-28 (2012)).
An animal model in which a mutant trypsinogen was expressed and activated only in pancreatic acinar cells was developed as described elsewhere (Gaiser et al., Gut, 60:1379-88 (2011)). These mice developed more severe AP, compared with WT mice. This information further emphasized the role trypsin plays in the development of pancreatitis. […]

| SMILES | development of severe AP (pancreas edema, serum amylase) | pancreas histology (pretreatment before caerulein, Dabigatran 200 mg/kg×2) |
| --- | --- | --- |
| [H]/N=C(/N)c1ccc(NCc2nc3cc(C(=O)N(CCC(=O)O)c4ccccn4)ccc3n2C)cc1 [Dabigatran] | successfully prevented the development of severe AP | tissue resembling normal WT animals |
| CCOC(=O)CN[C@@H](C(=O)N1CC[C@H]1C(=O)NCc1ccc(/C(N)=N\O)cc1)C1CCCCC1 [Ximelagatran] | no ability to prevent the development of severe AP | – |
